Test results reported in paper PMC9516196.
These are yes or no findings as the source states them, for the method shown. Binding calls can cover weak binding; strength is not graded here. Tags and fused reporters may be left off the sequences shown.

Molecular target: T1, ORYZA SATIVA HOMEOBOX 15 (OSH15), yeast two-hybrid fusion (rice (Oryza sativa)) (UniProt O80416)
T1 sequence: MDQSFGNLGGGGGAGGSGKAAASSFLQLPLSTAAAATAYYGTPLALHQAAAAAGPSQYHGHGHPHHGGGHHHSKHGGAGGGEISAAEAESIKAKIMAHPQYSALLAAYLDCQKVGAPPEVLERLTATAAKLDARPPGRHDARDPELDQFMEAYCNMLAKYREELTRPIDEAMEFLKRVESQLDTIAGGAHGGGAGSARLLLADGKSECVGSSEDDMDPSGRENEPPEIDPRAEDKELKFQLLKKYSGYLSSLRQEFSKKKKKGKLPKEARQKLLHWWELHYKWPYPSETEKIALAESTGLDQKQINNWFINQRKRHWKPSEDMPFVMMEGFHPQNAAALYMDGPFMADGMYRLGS
Assay: two-hybrid; Golden Yeast System (Takara); yeast growing on SD/His–Ade–Leu–Trp– plates within 1 week counted as positive

“C-terminus of DLT (containing a GRAS domain), yeast two-hybrid fusion (rice (Oryza sativa)) (domain or fragment)” was tested, and the binding was “binds”.
